Measurements taken from US9517222B2, “Method for the treatment of senile dementia of the Alzheimer's type” (Phenomenome Discoveries Inc., priority 2007, dated 2016).

Columns and labels:
[1] = Serum ethanolamine phospholipid ratios to PtdEt 16:0/18:0 (M01) in human cohorts
[2] = Serum ethanolamine phospholipid levels in human cohorts (dementia severity, post-mortem pathology, age) by flow-injection MS/MS
[3] = serum, females, post mortem SDAT
[4] = serum, females, post mortem control

CCCCCCCC/C=C\CCCCCCCC(=O)OC(COC(=O)CCCCCCCCCCCCCCCCC)COP(=O)(O)OCCN (centres unmarked) [Metabolite M04, PtdEt 18:0/18:1]
Ratio of ethanolamine phospholipid ratios to M01 between cohorts ([1]; AD, All to CN, Male): 0.802
Ratio of ethanolamine phospholipid ratios to M01 between cohorts ([1]; ADAS 5-19 to CN, Male): 0.774
Ratio of ethanolamine phospholipid ratios to M01 between cohorts ([1]; ADAS 20-39 to CN, Male): 0.836
Ratio of ethanolamine phospholipid ratios to M01 between cohorts ([1]; ADAS 40-70 to CN, Male): 0.700
Average serum ethanolamine phospholipid ratio to M01, Mean ([1]; Cognitive Normal, Male, serum): 0.262
Average serum ethanolamine phospholipid ratio to M01, Mean ([1]; SDAT, ADAS 5-19, Male, serum): 0.203
Average serum ethanolamine phospholipid ratio to M01, Mean ([1]; SDAT, ADAS 20-39, Male, serum): 0.219
Average serum ethanolamine phospholipid ratio to M01, Mean ([1]; SDAT, ADAS 40-70, Male, serum): 0.183
Average serum ethanolamine phospholipid ratio to M01, Mean ([1]; SDAT_all, Male, serum): 0.210
Ethanolamine Phospholipid Ratio to M01, Mean, Age Ctl, 30-39, Female ([1]; human serum, females aged 30-39): 0.279
Ethanolamine Phospholipid Ratio to M01, Mean, Age Ctl, 40-49, Female ([1]; human serum, females aged 40-49): 0.283
Ethanolamine Phospholipid Ratio to M01, Mean, Age Ctl, 50-59, Female ([1]; human serum, females aged 50-59): 0.241
Ratio of Ethanolamine Phospholipid Ratio to M01, 50-59 vs. 40-49, Female ([1]; human serum, females aged 50-59 vs. females aged 40-49): 0.850
Ethanolamine Phospholipid Ratio to M01, Mean, Age Ctl, 60-69, Female ([1]; human serum, females aged 60-69): 0.184
Ratio of Ethanolamine Phospholipid Ratio to M01, 60-69 vs. 40-49, Female ([1]; human serum, females aged 60-69 vs. females aged 40-49): 0.652
Ethanolamine Phospholipid Ratio to M01, Mean, Age Ctl, 70+_Female ([1]; human serum, females aged 70+): 0.221
Ratio of Ethanolamine Phospholipid Ratio to M01, 70+ vs. 40-49, Female ([1]; human serum, females aged 70+ vs. females aged 40-49): 0.782
Ratio of Ethanolamine Phospholipid Ratio to M01, 50-59 vs. 40-49, Male ([1]; human serum, males aged 50-59 vs. males aged 40-49): 1.023
Ratio of Ethanolamine Phospholipid Ratio to M01, 60-69 vs. 40-49, Male ([1]; human serum, males aged 60-69 vs. males aged 40-49): 0.883
Ratio of Ethanolamine Phospholipid Ratio to M01, 70+ vs. 40-49, Male ([1]; human serum, males aged 70+ vs. males aged 40-49): 0.889
Ratio of ethanolamine phospholipid ratio to M01, ADAS 5-19 to CN, Female ([1]; serum, females, ADAS 5-19 vs cognitive normal): 0.968
Ratio of ethanolamine phospholipid ratio to M01, ADAS 20-39 to 5-19, Female ([1]; serum, females, ADAS 20-39 vs ADAS 5-19): 1.122
Ratio of ethanolamine phospholipid ratio to M01, ADAS 20-39 to CN, Female ([1]; serum, females, ADAS 20-39 vs cognitive normal): 1.086
Ratio of ethanolamine phospholipid ratio to M01, ADAS 40-70 to 5-19, Female ([1]; serum, females, ADAS 40-70 vs ADAS 5-19): 0.917
Ratio of ethanolamine phospholipid ratio to M01, ADAS 40-70 to 20-39, Female ([1]; serum, females, ADAS 40-70 vs ADAS 20-39): 0.817
Ratio of ethanolamine phospholipid ratio to M01, ADAS 40-70 to CN, Female ([1]; serum, females, ADAS 40-70 vs cognitive normal): 0.887
Ethanolamine phospholipid ratio to M01, Mean, SDAT, ADAS 5-19, Female ([1]; serum, females, SDAT ADAS 5-19): 0.215
Ethanolamine phospholipid ratio to M01, Mean, SDAT, ADAS 20-39, Female ([1]; serum, females, SDAT ADAS 20-39): 0.241
Ethanolamine phospholipid ratio to M01, Mean, SDAT, ADAS 40-70, Female ([1]; serum, females, SDAT ADAS 40-70): 0.197
Ratio of ethanolamine phospholipid ratio to M01, AD, All to CN, Female ([1]; serum, females, all AD vs cognitive normal): 0.986
Ethanolamine phospholipid ratio to M01, Mean, SDAT_all Female ([1]; serum, females, all SDAT): 0.219
Ratio of ethanolamine phospholipid ratio to M01, Autopsy AD vs. Control, Female ([1]; serum, females, autopsy AD vs post mortem control): 1.069
Ethanolamine phospholipid ratio to M01, Mean, Cognitive Normal, Female ([1]; serum, females, cognitive normal): 0.222
Ethanolamine phospholipid ratio to M01, Mean, Post Mortem SDAT Female [1, 3]: 0.092
Ethanolamine phospholipid ratio to M01, Mean, Post Mortem Ctl, Female [1, 4]: 0.086
Ratio of ethanolamine phospholipid ratio to M01, ADAS 20-39 to 5-19, Male ([1]; serum, males, SDAT ADAS 20-39 vs ADAS 5-19): 1.080
Ratio of ethanolamine phospholipid ratio to M01, ADAS 40-70 to 5-19, Male ([1]; serum, males, SDAT ADAS 40-70 vs ADAS 5-19): 0.903
Ratio of ethanolamine phospholipid ratio to M01, ADAS 40-70 to 20-39, Male ([1]; serum, males, SDAT ADAS 40-70 vs ADAS 20-39): 0.837
Ethanolamine phospholipid ratio to M01, Mean, Age Ctl, 30-39, Male ([1]; serum, males, age control 30-39): 0.224
Ethanolamine phospholipid ratio to M01, Mean, Age Ctl, 40-49, Male ([1]; serum, males, age control 40-49): 0.229
Ethanolamine phospholipid ratio to M01, Mean, Age Ctl, 50-59, Male ([1]; serum, males, age control 50-59): 0.235
Ethanolamine phospholipid ratio to M01, Mean, Age Ctl, 60-69, Male ([1]; serum, males, age control 60-69): 0.203
Ethanolamine phospholipid ratio to M01, Mean, Age Ctl, 70+_Male ([1]; serum, males, age control 70+): 0.204
Ethanolamine phospholipid ratio to M01, Mean, Post Mortem SDAT Male ([1]; serum, males, post mortem SDAT): 0.076
Ratio of ethanolamine phospholipid ratio to M01, SDAT vs Control (post mortem, males) ([1]; serum, males, post mortem SDAT vs post mortem control): 0.529
Ethanolamine phospholipid ratio to M01, Mean, Post Mortem Ctl, Male ([1]; serum, males, post mortem control): 0.143
Ratio of serum levels ([2]; AD, All to CN, Male): 0.882
Ratio of serum levels ([2]; ADAS 5-19 to CN, Male): 0.836
Ratio of serum levels ([2]; ADAS 20-39 to 5-19, Male): 1.072
Ratio of serum levels ([2]; ADAS 20-39 to CN, Male): 0.896
Ratio of serum levels ([2]; ADAS 40-70 to 5-19, Male): 0.868
Ratio of serum levels ([2]; ADAS 40-70 to 20-39, Male): 0.810
Ratio of serum levels ([2]; ADAS 40-70 to CN, Male): 0.726
Serum level, Mean ([2]; Cognitive Normal, Female): 0.026
Average serum level, Mean ([2]; Cognitive Normal, Male): 0.030
Serum level, Mean ([2]; Post Mortem Ctl, Male): 0.017
Serum level, Mean ([2]; Post Mortem SDAT Male): 0.007
Ratio of serum levels ([2]; Post mortem SDAT vs Control, Male): 0.420
Serum level, Mean ([2]; SDAT, ADAS 5-19, Female): 0.024
Average serum level, Mean ([2]; SDAT, ADAS 5-19, Male): 0.025
Serum level, Mean ([2]; SDAT, ADAS 20-39, Female): 0.027
Average serum level, Mean ([2]; SDAT, ADAS 20-39, Male): 0.027
Serum level, Mean ([2]; SDAT, ADAS 40-70, Female): 0.024
Average serum level, Mean ([2]; SDAT, ADAS 40-70, Male): 0.022
Serum level, Mean ([2]; SDAT_all, Female): 0.025
Average serum level, Mean ([2]; SDAT_all, Male): 0.026
Ratio, ADAS 5-19 to CN, Female ([2]; serum level ratio, females, ADAS 5-19 vs CN): 0.912
Ratio, ADAS 20-39 to 5-19, Female ([2]; serum level ratio, females, ADAS 20-39 vs ADAS 5-19): 1.126
Ratio, ADAS 20-39 to CN, Female ([2]; serum level ratio, females, ADAS 20-39 vs CN): 1.027
Ratio, ADAS 40-70 to 5-19, Female ([2]; serum level ratio, females, ADAS 40-70 vs ADAS 5-19): 1.022
Ratio, ADAS 40-70 to 20-39, Female ([2]; serum level ratio, females, ADAS 40-70 vs ADAS 20-39): 0.907
Ratio, ADAS 40-70 to CN, Female ([2]; serum level ratio, females, ADAS 40-70 vs CN): 0.932
Ratio, 50-59 vs. 40-49, Female ([2]; serum level ratio, females, age 50-59 vs 40-49): 0.772
Ratio, 60-69 vs. 40-49, Female ([2]; serum level ratio, females, age 60-69 vs 40-49): 0.709
Ratio, 70+ vs. 40-49, Female ([2]; serum level ratio, females, age 70+ vs 40-49): 0.811
Ratio, AD, All to CN, Female ([2]; serum level ratio, females, all AD vs cognitively normal): 0.963
Ratio, Autopsy AD vs. Control, Female ([2]; serum level ratio, females, autopsy AD vs control): 0.775
Ratio, 50-59 vs. 40-49, Male ([2]; serum level ratio, males, age 50-59 vs 40-49): 0.954
Ratio, 60-69 vs. 40-49, Male ([2]; serum level ratio, males, age 60-69 vs 40-49): 1.019
Ratio, 70+ vs. 40-49, Male ([2]; serum level ratio, males, age 70+ vs 40-49): 1.015
Mean serum level, Age Ctl, 30-39, Female ([2]; serum, females, age 30-39): 0.028
Mean serum level, Age Ctl, 40-49, Female ([2]; serum, females, age 40-49): 0.033
Mean serum level, Age Ctl, 50-59, Female ([2]; serum, females, age 50-59): 0.025
Mean serum level, Age Ctl, 60-69, Female ([2]; serum, females, age 60-69): 0.023
Mean serum level, Age Ctl, 70+, Female ([2]; serum, females, age 70+): 0.026
Mean serum level, Post Mortem SDAT, Female [2, 3]: 0.012
Mean serum level, Post Mortem Ctl, Female [2, 4]: 0.016
Mean serum level, Age Ctl, 30-39, Male ([2]; serum, males, age 30-39): 0.026
Mean serum level, Age Ctl, 40-49, Male ([2]; serum, males, age 40-49): 0.027
Mean serum level, Age Ctl, 50-59, Male ([2]; serum, males, age 50-59): 0.025
Mean serum level, Age Ctl, 60-69, Male ([2]; serum, males, age 60-69): 0.027
Mean serum level, Age Ctl, 70+, Male ([2]; serum, males, age 70+): 0.027

A unit is not stated for every read-out.
